The record followed here is PubChem BioAssay AID493014 (National Center for Advancing Translational Sciences (NCATS), 2011).

The list shows a part of the results. Shown are side measurements of this screen, not its main read-out; they come without a call. The list favours compounds with an active or inconclusive main result. Words in brackets tell the shape of the fitted curve; partial curves, single points and poor fits give uncertain potencies.

This test is described as follows: qHTS Assay to Find Inhibitors of Chronic Active B-Cell Receptor Signaling. The settings on record: ABC-DLBCL IkBa-CBG/CBR reporter, luminescence ratio (green luciferase fused to IkBa over red control in TMD8 lymphoma cells), 4 h. The method in brief:
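Compounds up to 46 uM were incubated four hours with TMD8 cells whose green CBG68 luciferase is fused to IkappaBalpha; red CBR luminescence normalised the signal, and concentration-effect curves were fitted to fusion, red and ratio data.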
For orientation: qHTS replaces the single test concentration by a dilution series.

[1] abbreviates: measured here: CBR red luminescence, cell number.
Setting [2] is: measured here: IkBa-CBG green luminescence.

One may read the AC50 as the concentration at which the activity in the assay is half-maximal. Consider `COC(=O)Cn1ncc(N2CC(C)OC(C)C2)c(Cl)c1=O` (stereo not drawn), for which, under setting [1], the AC50 is 3.98 µM [falling, full curve, poor fit].
The same measure, in the same setting: for `Cc1cc(C)cc(OCC(=O)Nc2cc(C)on2)c1` the value was 1 µM [rising, full curve].
As for `Cc1cccc(C(=O)NNC(=O)c2ccccc2[N+](=O)[O-])c1`, the AC50 under setting [1] is 11.2 µM [falling, partial curve, poor fit].
The same measure, in the same setting: for `O=C1/C(=C/c2ccc([N+](=O)[O-])cc2)C=C(c2ccccc2)N1c1ccc(O)cc1` the value was 29.1 µM [falling, single point].
Regarding `O=C(CSc1nnc(NC2CC2)s1)c1ccc[nH]1`, the AC50 under setting [1] is 23.1 µM [falling, partial curve].
Still for that read-out and setting: for `Nc1n[nH]c(N)c1N=Nc1ccc2c(c1)OCO2` the value was 17.8 µM [falling, single point]; for `O=C(/C=C/c1ccccc1O)c1ccco1`, 15.8 µM [falling, single point]; for `N=c1n(CC(=O)c2cccs2)c2ccccc2n1Cc1ccccc1`, 15.8 µM [falling, partial curve, poor fit].
For the molecule `CCN(CC)C(=S)SCC(=O)c1ccc(Br)cc1`, the AC50 under setting [2] is 20.6 µM [falling, single point].
On to `COCCNS(=O)(=O)c1ccc2c(c1)C(=NO)c1cc(S(=O)(=O)NCCOC)ccc1-2`, for which, under setting [1], the AC50 is 35.5 µM [rising, single point].
Consider `C/C(=N\NC(=O)c1cc(O)cc(O)c1)c1ccc(NC(=O)Cc2ccccc2)cc1`, for which the AC50 under setting [1] is 7.08 µM [falling, partial curve].
Consider `Cc1ccc(S(=O)(=O)N2c3cc(C)ccc3OCC2C(C)(C)C)cc1` (stereo not drawn), for which the AC50 under setting [1] was 32.6 µM [rising, partial curve, poor fit].
Still for that read-out and setting: for `CCCCSc1cc(=O)[nH]c(N)n1` the value was 35.5 µM [falling, partial curve, poor fit]; for `O=C1c2ccccc2S(=O)(=O)N1CC1CC(c2ccccc2Cl)=NO1` (stereo not drawn), 3.26 µM [rising, full curve, poor fit]; for `O=C(CSC1=NS(=O)(=O)c2ccccc2N1)Nc1cccc(F)c1`, 9.2 µM [falling, partial curve, poor fit].
`O=C(Nc1ccc(Cl)cc1)c1cc(S(=O)(=O)N2CCOCC2)cs1`: the AC50 under setting [1] is 10.3 µM [falling, partial curve].
With `CC(O)CNCCCCOc1ccc(OCc2ccccc2)cc1` (stereo not drawn), the AC50 under setting [1] is 35.5 µM [falling, single point].
Still for that read-out and setting: for `O=C(OCn1ncc(Cl)c(Cl)c1=O)c1ccc(F)cc1` the value was 10 µM [falling, partial curve, poor fit]; for `COc1cc(OC)c(OC)cc1CCC(C)NCCC(c1ccccc1)c1ccccc1` (stereo not drawn), 11.2 µM [falling, partial curve, poor fit]; for `CC(=O)NC(Cc1ccccc1)C(=O)NC1CCN(c2ncccc2[N+](=O)[O-])CC1` (stereo not drawn), 0.82 µM [rising, full curve, poor fit].
On the same count and under the same terms, as for `CSc1cccc2sc(NC(=O)C3=COCCO3)nc12`, the figure is 29.1 µM [falling, single point].
Same read-out and setting: as for `CCOC(=O)CN1C(=O)Nc2ccc(Br)cc2C1c1ccccc1` (stereo not drawn), the figure is 0.794 µM [rising, full curve, poor fit]; as for `Cc1ccccc1NC(=O)CCCCC(=O)Nc1ccccc1C`, 3.16 µM [falling, partial curve, poor fit].
`Cc1[nH]c2ccc(F)cc2c1CCN(Cc1ccco1)C(=S)NC(C)(C)C`: under setting [1], the AC50 is 35.5 µM [falling, single point].
On to `Cc1cc(=O)[nH]c(SCc2nnc(-c3ccccc3)o2)n1`, for which, under setting [1], the AC50 is 29.1 µM [falling, single point].
Turning to `COc1ccc(N2CCN(c3nc4ccc(C)cn4c(=O)c3C=O)CC2)cc1`, the AC50 was 0.355 µM [rising, partial curve, poor fit] under setting [1] and 3.16 µM [falling, single point] under setting [2].
Take `CCN(CC(=O)Nc1c(F)cccc1F)C(=O)CN1C(=O)c2ccccc2C1=O`: the AC50 under setting [1] was 29.1 µM [rising, single point].
In the case of `O=C(CSc1nnc(NC(=O)C2CC2)s1)Nc1ccccc1Cl`, the AC50 under setting [1] was 12.6 µM [rising, single point].
For `COc1ccc(/C=C/C(=O)c2cc(F)ccc2OC(=O)c2ccccc2C)cc1OC`, the AC50 by setting is: under setting [1], 9.2 µM [rising, single point]; under setting [2], 5.8 µM [falling, full curve].
As for `Cc1ccc(Nc2nnc(C3C(=O)N(C)C4(C)CC3c3cc(Br)ccc3O4)s2)cc1` (stereo not drawn), under setting [1], the AC50 is 9.2 µM [falling, partial curve, poor fit].
As for `CN1CCC(N(C)S(=O)(=O)c2ccc(NC(=O)c3ccc(S(=O)(=O)N(C)C)cc3)cc2)CC1`, under setting [1], the concentration at half-maximal activity (AC50) was 23.1 µM [falling, single point].
On the same count and under the same terms, as for `COC(=O)c1ccc(CN2C(=O)NC(Cc3c[nH]c4ccccc34)C2=O)cc1` (stereo not drawn), the figure is 12.6 µM [falling, single point].
As for `O=C(CNC(=O)c1cccs1)NCC(=O)OCC(=O)c1ccccc1`, the AC50 under setting [1] was 0.282 µM [rising, full curve].
With `CCOC(=O)C1CCCN(C(=O)CNC(=O)Cn2ccc3ccccc3c2=O)C1` (stereo not drawn), under setting [1], the AC50 is 0.731 µM [rising, full curve, poor fit].
As for `OC1CCCN(c2c3c(nc4cc(-c5cccc(Cl)c5)nn24)CCC3)C1` (stereo not drawn), under setting [1], the concentration at half-maximal activity (AC50) was 2.31 µM [rising, partial curve, poor fit].
On the same count and under the same terms, as for `CCc1nc(SCc2ccccn2)[nH]c(=O)c1C`, the figure is 0.794 µM [falling, full curve, poor fit].
On the same count and under the same terms, as for `O=C(CCC(=O)c1cccs1)c1cccs1`, the figure is 16.4 µM [falling, partial curve, poor fit]; as for `Cc1ccccc1C(=O)NNC1CC(=O)N(c2ccc3c(c2)OCCO3)C1=O` (stereo not drawn), 18.4 µM [falling, partial curve].
The same measure, in the same setting: as for `COc1ccccc1N(O)C1CC(=O)N(c2ccc(F)cc2)C1=O` (stereo not drawn), the figure is 13 µM [falling, partial curve, poor fit]; as for `C=CCNc1sc(C(=O)C2CC2)c(N)c1C#N`, 1.84 µM [rising, full curve, poor fit]; as for `O=C(Nc1nnc(-c2ccco2)o1)c1cccc(Cl)c1`, 5.62 µM [falling, full curve].
